These are yes or no findings as the source states them, for the method shown. Binding seen in cells or lysates may run through a third protein. A yes stands for co-enrichment or nearness to the bait. Other partners may have been found. Sequences can lack the tags named with a protein.

Chains of the proteins cited; added tags and fusions are not shown.
UniProt Q92769: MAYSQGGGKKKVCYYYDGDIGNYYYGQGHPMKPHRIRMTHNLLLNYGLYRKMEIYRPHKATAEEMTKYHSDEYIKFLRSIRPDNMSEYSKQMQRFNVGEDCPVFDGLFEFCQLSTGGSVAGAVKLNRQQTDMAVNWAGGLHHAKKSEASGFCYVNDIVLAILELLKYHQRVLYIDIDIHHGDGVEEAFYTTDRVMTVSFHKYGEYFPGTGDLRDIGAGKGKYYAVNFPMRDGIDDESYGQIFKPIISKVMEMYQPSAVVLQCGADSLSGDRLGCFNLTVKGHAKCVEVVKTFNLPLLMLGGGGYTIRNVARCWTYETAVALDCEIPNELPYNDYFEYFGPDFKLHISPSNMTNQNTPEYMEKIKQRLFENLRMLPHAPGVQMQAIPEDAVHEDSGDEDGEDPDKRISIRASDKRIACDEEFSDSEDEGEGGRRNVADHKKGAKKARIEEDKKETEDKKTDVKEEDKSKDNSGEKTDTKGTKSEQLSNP

The experiment addresses T1, FLAG-tagged XPO7 protein (UniProt Q9UIA9).
T1 sequence: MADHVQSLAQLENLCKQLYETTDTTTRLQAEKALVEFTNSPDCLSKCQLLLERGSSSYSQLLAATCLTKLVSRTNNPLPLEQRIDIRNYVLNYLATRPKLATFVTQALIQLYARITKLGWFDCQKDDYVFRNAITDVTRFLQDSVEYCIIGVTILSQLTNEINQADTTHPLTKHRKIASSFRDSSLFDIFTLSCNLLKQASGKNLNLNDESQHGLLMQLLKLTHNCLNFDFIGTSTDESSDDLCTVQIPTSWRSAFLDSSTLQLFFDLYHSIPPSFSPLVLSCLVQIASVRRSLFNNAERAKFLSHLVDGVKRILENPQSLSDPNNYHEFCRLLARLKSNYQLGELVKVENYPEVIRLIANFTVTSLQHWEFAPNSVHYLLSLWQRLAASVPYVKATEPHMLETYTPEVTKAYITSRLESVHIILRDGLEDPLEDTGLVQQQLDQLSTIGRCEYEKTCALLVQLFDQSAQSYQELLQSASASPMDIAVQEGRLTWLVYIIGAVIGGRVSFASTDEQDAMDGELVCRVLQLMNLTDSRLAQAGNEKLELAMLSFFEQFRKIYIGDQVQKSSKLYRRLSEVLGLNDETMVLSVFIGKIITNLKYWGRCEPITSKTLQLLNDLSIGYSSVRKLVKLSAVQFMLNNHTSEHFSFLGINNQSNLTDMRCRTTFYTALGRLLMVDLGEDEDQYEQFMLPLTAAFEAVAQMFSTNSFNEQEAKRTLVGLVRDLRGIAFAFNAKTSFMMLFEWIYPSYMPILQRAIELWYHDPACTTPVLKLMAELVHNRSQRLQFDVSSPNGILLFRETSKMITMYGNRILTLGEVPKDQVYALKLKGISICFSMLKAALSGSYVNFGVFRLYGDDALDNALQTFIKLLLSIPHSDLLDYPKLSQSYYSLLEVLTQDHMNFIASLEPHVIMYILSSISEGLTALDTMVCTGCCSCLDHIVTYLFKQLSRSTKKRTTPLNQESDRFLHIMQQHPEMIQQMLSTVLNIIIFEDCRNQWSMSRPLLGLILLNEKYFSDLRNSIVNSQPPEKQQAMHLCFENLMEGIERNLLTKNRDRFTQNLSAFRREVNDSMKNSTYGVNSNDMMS
Nature of the experiment: affinity purification with mass spectrometry; FLAG-tagged XPO7 ectopically expressed in HEK293T cells; Co-IP with FLAG antibody followed by mass spectrometry (IP-MS).

Regarding “HDAC2 (histone deacetylase 2) in HEK293T cells (from UniProt Q92769 1-488)”, the binding result was “binds”.

The record behind these values is publication PMC10392025.
